{"source": "patent US11332716B2", "about": "“Methods and compositions for producing pancreatic beta cells” (The Regents of the University of California, priority 2015, dated 2022)", "origin": "cited, not measured here", "test_system": "histone deacetylases (HDACs)", "settings": "isoform not stated; read-out: IC50 (histone deacetylase); cited from earlier work", "note": "For at least one compound, name, drawing or mass did not settle the structure.", "data": [{"smiles": "CCC(=O)CCCCC[C@@H]1NC(=O)[C@H]2CCCCN2C(=O)[C@H]([C@@H](C)CC)NC(=O)[C@H](Cc2cn(OC)c3ccccc23)NC1=O", "note": "[Apicidin, Cyclo[(2S)-2-Amino-8-oxodecanoyl-1-methoxy-L-tryptophyl-L-isoleucyl-(2R)-2-piperidine-carbonyl]]", "values": [{"measurement": "IC50", "result": 700, "unit": "pM"}]}]}
